The results in this text go back to article PMC6787082.

Protein sequences, listed by entry. Tags and fused reporters are not part of them. Lines headed by an entry give the natural chain unless they say otherwise; changes in a name come on top.
UniProt P0CAW2: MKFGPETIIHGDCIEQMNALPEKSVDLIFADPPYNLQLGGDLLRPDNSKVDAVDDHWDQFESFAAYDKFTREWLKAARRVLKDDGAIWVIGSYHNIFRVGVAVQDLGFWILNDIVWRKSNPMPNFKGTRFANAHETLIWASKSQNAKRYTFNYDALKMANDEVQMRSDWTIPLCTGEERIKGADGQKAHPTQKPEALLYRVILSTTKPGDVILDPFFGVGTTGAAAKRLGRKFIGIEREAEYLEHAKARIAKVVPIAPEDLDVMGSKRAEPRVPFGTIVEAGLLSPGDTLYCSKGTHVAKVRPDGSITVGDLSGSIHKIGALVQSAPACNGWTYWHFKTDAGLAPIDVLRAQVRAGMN

Construct, isoform or probe ends are uncertain for at least one entry. At least one verdict was read from the data and is not stated in words by the source.

The target in the data set is CcrM (Caulobacter crescentus) (UniProt P0CAW2). As to the kind of experiment: X-ray crystallography (crystals, 3.0 A). The settings on record: sinefungin; Co-crystallization: protein stock in 20 mM HEPES pH 8.0, 300 mM NaCl, 5% glycerol, 0.5 mM TCEP; ~1:1 monomer:duplex (~56 uM), 5x sinefungin; well 0.1 M HEPES pH 7.8; recombinant protein; residues 1-358; protein details: N-terminal His-tag.

In the case of “CGTATCAATGAATCCCAAG / GCTTGGGATTCATTGATAC [GAATC duplex, CGTATC flank]”, the binding result was “binds”.
